The chains behind the UniProt entries cited, without tags or fusion partners.
UniProt Q8LPJ4: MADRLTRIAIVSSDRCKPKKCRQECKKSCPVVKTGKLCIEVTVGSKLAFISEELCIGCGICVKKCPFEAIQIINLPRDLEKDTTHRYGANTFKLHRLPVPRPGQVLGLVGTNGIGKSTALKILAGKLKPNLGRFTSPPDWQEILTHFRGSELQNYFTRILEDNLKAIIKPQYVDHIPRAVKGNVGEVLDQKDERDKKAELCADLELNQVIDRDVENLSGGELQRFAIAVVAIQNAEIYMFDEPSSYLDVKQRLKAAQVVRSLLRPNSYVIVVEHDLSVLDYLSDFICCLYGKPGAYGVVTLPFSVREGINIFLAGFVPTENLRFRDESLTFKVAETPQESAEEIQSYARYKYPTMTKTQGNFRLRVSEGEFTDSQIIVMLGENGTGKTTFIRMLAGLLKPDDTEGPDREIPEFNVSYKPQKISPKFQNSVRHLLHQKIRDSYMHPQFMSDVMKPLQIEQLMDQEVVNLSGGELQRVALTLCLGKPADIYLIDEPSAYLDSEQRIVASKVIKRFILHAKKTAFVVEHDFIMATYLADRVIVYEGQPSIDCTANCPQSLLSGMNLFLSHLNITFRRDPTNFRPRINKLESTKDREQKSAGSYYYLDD
UniProt P34790: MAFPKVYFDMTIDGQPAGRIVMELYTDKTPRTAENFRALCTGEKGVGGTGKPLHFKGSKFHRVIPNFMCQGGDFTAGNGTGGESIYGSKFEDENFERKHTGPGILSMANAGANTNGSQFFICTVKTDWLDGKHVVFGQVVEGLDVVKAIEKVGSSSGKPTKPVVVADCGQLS
UniProt F4I893: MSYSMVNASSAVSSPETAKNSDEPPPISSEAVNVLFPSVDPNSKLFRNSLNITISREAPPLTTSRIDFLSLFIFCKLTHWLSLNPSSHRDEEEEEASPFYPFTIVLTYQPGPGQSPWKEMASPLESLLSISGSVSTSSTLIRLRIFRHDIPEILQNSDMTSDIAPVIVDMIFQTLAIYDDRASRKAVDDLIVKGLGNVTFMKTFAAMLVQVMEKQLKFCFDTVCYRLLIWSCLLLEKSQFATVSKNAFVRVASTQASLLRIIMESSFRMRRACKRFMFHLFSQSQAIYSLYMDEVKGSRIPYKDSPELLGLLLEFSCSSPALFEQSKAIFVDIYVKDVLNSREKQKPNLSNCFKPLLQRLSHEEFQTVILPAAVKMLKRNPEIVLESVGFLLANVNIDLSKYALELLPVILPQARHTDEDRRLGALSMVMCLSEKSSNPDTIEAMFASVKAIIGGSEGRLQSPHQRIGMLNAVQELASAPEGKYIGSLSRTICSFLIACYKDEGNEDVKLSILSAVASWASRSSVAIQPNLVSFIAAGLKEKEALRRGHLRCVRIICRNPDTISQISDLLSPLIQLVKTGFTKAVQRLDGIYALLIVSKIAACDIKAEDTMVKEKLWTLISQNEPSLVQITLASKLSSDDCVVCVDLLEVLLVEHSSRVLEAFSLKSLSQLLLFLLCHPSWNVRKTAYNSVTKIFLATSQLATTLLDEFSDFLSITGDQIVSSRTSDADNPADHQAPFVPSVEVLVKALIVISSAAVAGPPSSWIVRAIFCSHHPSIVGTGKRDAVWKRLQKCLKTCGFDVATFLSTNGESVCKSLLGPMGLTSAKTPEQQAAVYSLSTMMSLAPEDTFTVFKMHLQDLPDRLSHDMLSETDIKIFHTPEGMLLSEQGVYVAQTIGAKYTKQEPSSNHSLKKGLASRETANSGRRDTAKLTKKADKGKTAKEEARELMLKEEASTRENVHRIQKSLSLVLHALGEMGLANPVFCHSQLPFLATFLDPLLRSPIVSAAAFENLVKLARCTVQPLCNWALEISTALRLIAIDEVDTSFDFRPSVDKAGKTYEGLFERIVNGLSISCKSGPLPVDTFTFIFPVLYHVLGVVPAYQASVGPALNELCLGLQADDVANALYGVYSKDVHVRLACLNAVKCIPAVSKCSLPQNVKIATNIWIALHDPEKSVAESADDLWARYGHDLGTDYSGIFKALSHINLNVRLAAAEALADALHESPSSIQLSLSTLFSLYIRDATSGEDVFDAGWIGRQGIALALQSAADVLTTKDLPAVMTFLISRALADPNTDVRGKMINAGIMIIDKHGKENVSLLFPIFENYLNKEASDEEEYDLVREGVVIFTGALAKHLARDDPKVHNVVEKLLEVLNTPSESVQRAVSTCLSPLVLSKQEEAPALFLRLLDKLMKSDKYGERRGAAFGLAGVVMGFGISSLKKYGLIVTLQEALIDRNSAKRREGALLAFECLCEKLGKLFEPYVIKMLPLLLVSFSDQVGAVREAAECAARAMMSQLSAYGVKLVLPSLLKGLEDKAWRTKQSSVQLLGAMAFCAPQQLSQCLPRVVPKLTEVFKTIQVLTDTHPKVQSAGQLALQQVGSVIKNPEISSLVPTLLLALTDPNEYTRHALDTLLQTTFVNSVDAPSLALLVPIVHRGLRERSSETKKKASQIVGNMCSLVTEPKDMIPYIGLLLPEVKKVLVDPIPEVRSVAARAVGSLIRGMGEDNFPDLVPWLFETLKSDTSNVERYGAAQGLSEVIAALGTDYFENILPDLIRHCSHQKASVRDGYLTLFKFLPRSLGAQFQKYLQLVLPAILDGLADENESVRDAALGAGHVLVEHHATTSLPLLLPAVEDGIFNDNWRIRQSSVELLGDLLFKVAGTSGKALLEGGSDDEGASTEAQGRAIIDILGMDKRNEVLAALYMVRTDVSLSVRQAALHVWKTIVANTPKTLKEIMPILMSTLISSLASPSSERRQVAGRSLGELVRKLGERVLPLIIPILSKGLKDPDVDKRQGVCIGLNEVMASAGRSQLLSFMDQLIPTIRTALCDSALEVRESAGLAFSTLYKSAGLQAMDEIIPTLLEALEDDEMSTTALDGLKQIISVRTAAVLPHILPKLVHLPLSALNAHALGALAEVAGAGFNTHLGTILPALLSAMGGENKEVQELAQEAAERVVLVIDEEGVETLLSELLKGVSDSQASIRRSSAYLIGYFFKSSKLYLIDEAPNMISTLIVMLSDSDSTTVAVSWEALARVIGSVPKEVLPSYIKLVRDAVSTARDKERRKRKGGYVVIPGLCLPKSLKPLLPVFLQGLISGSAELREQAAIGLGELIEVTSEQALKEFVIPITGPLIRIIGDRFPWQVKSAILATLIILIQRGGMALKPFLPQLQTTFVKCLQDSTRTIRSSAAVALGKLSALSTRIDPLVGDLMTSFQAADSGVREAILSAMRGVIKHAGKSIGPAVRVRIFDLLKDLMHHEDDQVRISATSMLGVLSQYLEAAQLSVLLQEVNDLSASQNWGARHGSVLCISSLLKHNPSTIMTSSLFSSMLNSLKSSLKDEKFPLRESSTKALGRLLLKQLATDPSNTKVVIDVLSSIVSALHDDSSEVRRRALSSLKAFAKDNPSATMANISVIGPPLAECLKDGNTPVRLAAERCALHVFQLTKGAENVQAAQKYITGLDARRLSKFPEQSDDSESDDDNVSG
UniProt Q9FGI1: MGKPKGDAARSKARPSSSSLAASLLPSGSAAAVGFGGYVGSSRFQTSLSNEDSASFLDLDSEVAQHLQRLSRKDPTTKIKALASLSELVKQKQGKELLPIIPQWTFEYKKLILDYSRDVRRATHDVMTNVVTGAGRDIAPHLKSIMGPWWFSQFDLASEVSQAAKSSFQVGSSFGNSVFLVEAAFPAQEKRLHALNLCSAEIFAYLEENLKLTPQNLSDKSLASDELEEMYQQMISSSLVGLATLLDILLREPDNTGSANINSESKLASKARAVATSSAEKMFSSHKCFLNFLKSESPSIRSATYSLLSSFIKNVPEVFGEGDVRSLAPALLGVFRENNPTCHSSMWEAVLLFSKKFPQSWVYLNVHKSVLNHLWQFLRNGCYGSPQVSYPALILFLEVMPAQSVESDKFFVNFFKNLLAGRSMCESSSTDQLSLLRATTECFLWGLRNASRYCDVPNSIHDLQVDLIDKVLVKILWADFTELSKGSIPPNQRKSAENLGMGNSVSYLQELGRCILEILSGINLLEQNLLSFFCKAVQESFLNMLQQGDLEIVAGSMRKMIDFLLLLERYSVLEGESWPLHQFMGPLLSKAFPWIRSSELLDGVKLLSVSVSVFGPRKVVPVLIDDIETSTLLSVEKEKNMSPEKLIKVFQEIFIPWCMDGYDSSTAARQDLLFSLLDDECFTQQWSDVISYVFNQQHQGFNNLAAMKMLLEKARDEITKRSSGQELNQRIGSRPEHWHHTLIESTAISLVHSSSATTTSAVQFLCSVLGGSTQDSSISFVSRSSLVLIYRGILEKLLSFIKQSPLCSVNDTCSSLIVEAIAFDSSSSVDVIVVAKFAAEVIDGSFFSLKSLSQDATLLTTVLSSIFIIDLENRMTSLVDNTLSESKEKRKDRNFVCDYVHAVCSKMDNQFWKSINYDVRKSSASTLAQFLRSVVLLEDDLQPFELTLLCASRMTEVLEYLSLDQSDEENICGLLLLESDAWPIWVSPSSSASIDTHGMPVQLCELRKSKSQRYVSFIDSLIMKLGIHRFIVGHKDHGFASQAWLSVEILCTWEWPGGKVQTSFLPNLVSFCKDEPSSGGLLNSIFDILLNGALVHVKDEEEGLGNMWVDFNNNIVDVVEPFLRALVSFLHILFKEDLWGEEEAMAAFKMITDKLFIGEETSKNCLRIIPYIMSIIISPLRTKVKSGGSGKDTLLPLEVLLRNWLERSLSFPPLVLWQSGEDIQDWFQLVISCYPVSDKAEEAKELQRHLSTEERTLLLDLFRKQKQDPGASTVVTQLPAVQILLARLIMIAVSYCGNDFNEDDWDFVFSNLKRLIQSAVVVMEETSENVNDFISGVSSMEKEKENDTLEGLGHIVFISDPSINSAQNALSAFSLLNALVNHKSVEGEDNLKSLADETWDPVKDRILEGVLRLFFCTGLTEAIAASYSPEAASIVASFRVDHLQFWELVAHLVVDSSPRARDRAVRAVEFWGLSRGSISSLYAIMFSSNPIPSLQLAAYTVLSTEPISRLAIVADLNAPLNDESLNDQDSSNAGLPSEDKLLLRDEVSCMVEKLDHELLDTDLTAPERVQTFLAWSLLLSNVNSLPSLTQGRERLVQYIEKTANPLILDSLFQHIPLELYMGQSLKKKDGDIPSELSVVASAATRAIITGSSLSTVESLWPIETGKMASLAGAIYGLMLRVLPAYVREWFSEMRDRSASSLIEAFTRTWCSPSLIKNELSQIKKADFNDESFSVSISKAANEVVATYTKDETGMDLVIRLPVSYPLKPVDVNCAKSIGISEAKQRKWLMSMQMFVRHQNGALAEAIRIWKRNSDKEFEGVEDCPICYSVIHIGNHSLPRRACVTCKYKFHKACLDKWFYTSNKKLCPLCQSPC

According to publication PMC9618717:

What was measured:
[1] = molecular target: ABCE2:YFP fusion protein (Arabidopsis ATP-Binding Cassette E protein ABCE2 fused to YFP) (Arabidopsis thaliana) (UniProt Q8LPJ4); test: affinity purification with mass spectrometry; co-immunoprecipitation of ABCE2:YFP with the µMACS GFP Isolation Kit from extracts of whole api7-1 35Spro:ABCE2:YFP seedlings (10 das) crosslinked with 1% formaldehyde; lysis buffer 50 mM Tris-HCl pH 7.5, 0.1% IGEPAL CA-630, 2 mM PMSF, 150 mM NaCl; three biological replicates; LC-ESI-MS/MS; hits filtered by predicted cytoplasmic localisation and against a subtract list from three unrelated GFP co-immunoprecipitations
[2] = molecular target: ABCE2:YFP fusion protein (Arabidopsis ATP-Binding Cassette E protein ABCE2 fused to YFP) (Arabidopsis thaliana) (UniProt Q8LPJ4); test: as above; remark: listed apart in the source

Molecule | binding [1] | binding [2]
ROTAMASE CYP 1 (from UniProt P34790 1-172) | binds | –
ILITYHIA (from UniProt F4I893 1-2696) | binds | –
RPL3B (from UniProt P22738 1-390) | binds | –
protein encoded by At5g58410, annotated as E3 ubiquitin-protein ligase listerin (from UniProt Q9FGI1 1-1873) | binds | –
eIF3a (subunit of the eIF3 complex) (protein, UniProt Q9LD55 1-987) MANFAKPENALKRADELINVGQKQDALQALHDLITSKRYRAWQKPLEKIMFKYLDLCVDLKRGRFAKDGLIQYRIVCQQVNVSSLEEVIKHFLHLATDKAEQARSQADALEEALDVDDLEADRKPEDLQLSIVSGEKGKDRSDRELVTPWFKFLWETYRTVLEILRNNSKLEALYAMTAHKAFQFCKQYKRTTEFRRLCEIIRNHLANLNKYRDQRDRPDLSAPESLQLYLDTRFDQLKVATELGLWQEAFRSVEDIYGLMCMVKKTPKSSLLMVYYSKLTEIFWISSSHLYHAYAWFKLFSLQKNFNKNLSQKDLQLIASSVVLAALSIPPFDRAQSASHMELENEKERNLRMANLIGFNLEPKFEGKDMLSRSALLSELVSKGVLSCASQEVKDLFHVLEHEFHPLDLGSKIQPLLEKISKSGGKLSSAPSLPEVQLSQYVPSLEKLATLRLLQQVSKIYQTIRIESLSQLVPFFQFSEVEKISVDAVKNNFVAMKVDHMKGVVIFGNLGIESDGLRDHLAVFAESLSKVRAMLYPVPSKASKLAGVIPNLADTVEKEHKRLLARKSIIEKRKEDQERQQLEMEREEEQKRLKLQKLTEEAEQKRLAAELAERRKQRILREIEEKELEEAQALLEETEKRMKKGKKKPLLDGEKVTKQSVKERALTEQLKERQEMEKKLQKLAKTMDYLERAKREEAAPLIEAAYQRRLVEEREFYEREQQREVELSKERHESDLKEKNRLSRMLGNKEIFQAQVISRRQAEFDRIRTEREERISKIIREKKQERDIKRKQIYYLKIEEERIRKLQEEEEARKQEEAERLKKVEAERKANLDKAFEKQRQREIELEEKSRREREELLRGTNAPPARLAEPTVTPVGTTAPAAAAAAAGAPAAPYVPKWKRQTTEVSGPSAPTSSETDRRSNRGPPPGDDHWGSNRGAAQNTDRWTSNRERSGPPAEGGDRWGSGPRGSDDRRSTFGSSRPRPTQR | – | binds
EVOLUTIONARILY CONSERVED C-TERMINAL REGION 2 (protein, UniProt Q9LJE5 1-667) MATVAPPADQATDLLQKLSLDSPAKASEIPEPNKKTAVYQYGGVDVHGQVPSYDRSLTPMLPSDAADPSVCYVPNPYNPYQYYNVYGSGQEWTDYPAYTNPEGVDMNSGIYGENGTVVYPQGYGYAAYPYSPATSPAPQLGGEGQLYGAQQYQYPNYFPNSGPYASSVATPTQPDLSANKPAGVKTLPADSNNVASAAGITKGSNGSAPVKPTNQATLNTSSNLYGMGAPGGGLAAGYQDPRYAYEGYYAPVPWHDGSKYSDVQRPVSGSGVASSYSKSSTVPSSRNQNYRSNSHYTSVHQPSSVTGYGTAQGYYNRMYQNKLYGQYGSTGRSALGYGSSGYDSRTNGRGWAATDNKYRSWGRGNSYYYGNENNVDGLNELNRGPRAKGTKNQKGNLDDSLEVKEQTGESNVTEVGEADNTCVVPDREQYNKEDFPVDYANAMFFIIKSYSEDDVHKSIKYNVWASTPNGNKKLAAAYQEAQQKAGGCPIFLFFSVNASGQFVGLAEMTGPVDFNTNVEYWQQDKWTGSFPLKWHIVKDVPNSLLKHITLENNENKPVTNSRDTQEVKLEQGLKIVKIFKEHSSKTCILDDFSFYEVRQKTILEKKAKQTQKQVSEEKVTDEKKESATAESASKESPAAVQTSSDVKVAENGSVAKPVTGDVVANGC | – | binds
At2g20830 protein (folic acid binding/transferase, similar to human and S. cerevisiae Lto1) (protein, UniProt Q9SKT4 1-297) MLREMLGCCKVYISEARNKTALEAIERALKPFPPAAIVNKFEDAAYGRVGYTVVSSLANGSSSSLKNAVFAMVKTALDTINLELHCGSHPRLGVVDHICFHPLSQTSIEQVSSVANSLAMDIGSILRVPTYLYGAAEKEQCTLDSIRRKLGYFKANREGHEWAGGFDLEMVPLKPDAGPQEVSKAKGVVAVGACGWVSNYNVPVMSNDLKAVRRIARKTSERGGGLASVQTMALVHGEGVIEVACNLLNPSQVGGDEVQGLIERLGREEGLLVGKGYYTDYTPDQIVERYMDLLNNS | – | binds
eIF3e (subunit of the eIF3 complex) (protein, UniProt Q9C5Z3 1-441) MEESKQNYDLTPLIAPNLDRHLVFPIFEFLQERQLYPDEQILKSKIQLLNQTNMVDYAMDIHKSLYHTEDAPQEMVERRTEVVARLKSLEEAAAPLVSFLLNPNAVQELRADKQYNLQMLKERYQIGPDQIEALYQYAKFQFECGNYSGAADYLYQYRTLCSNLERSLSALWGKLASEILMQNWDIALEELNRLKEIIDSKSFSSPLNQVQNRIWLMHWGLYIFFNHDNGRTQIIDLFNQDKYLNAIQTSAPHLLRYLATAFIVNKRRRPQLKEFIKVIQQEHYSYKDPIIEFLACVFVNYDFDGAQKKMKECEEVIVNDPFLGKRVEDGNFSTVPLRDEFLENARLFVFETYCKIHQRIDMGVLAEKLNLNYEEAERWIVNLIRTSKLDAKIDSESGTVIMEPTQPNVHEQLINHTKGLSGRTYKLVNQLLEHTQAQATR | – | binds
eIF3k (subunit of the eIF3 complex) (protein, UniProt Q9SZA3 1-226) MGVEIQSPQEQSSYTVEQLVALNPFNPEILPDLENYVNVTSQTYSLEVNLCLLRLYQFEPERMNTHIVARILVKALMAMPTPDFSLCLFLIPERVQMEEQFKSLIVLSHYLETGRFQQFWDEAAKNRHILEAVPGFEQAIQAYASHLLSLSYQKVPRSVLAEAVNMDGASLDKFIEQQVTNSGWIVEKEGGSIVLPQNEFNHPELKKNTGENVPLEHIARIFPILG | – | binds

Like-named read-outs stand apart in the source and are kept apart here. No constants are given. Whether binding was seen depends on the method and setting. In cells and extracts the contact can be indirect. Here binding means that the protein was enriched with, or labelled near, the bait; the list need not be complete.
